Test system: human iPSC-derived platelets
Experiment: Covalent conjugation of Ipilimumab to human iPSC-derived platelets
Assay type: cell-based

Ipilimumab-conjugated platelets: human iPSC-derived platelets covalently conjugated with Ipilimumab
CD61 expression after conjugation: retained CD61 expression

Source: patent US12496315B2, “Compositions for drug delivery and methods of use thereof” (Stellular Bio, Inc., priority 2018, dated 2025)
